This is one part of the list.
Assays:
Experiment in all cases: log2 fold change, soluble protein after heating vs DMSO (PISA); higher = thermal stabilisation; K562 lysate, 10 uM; active = over 0.2 and 3.5 SD of the protein, either way, in both replicates (recomputed)
[1] = compound: CCCS(=O)(=O)Nc1ccc(F)c(C(=O)c2c[nH]c3ncc(-c4ccc(Cl)cc4)cc23)c1F [vemurafenib]
Method in brief: (§1)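 K562 pellets were dounce-homogenised in PBS pH 7.4 containing 1 mM MgCl2, and the crude extract, at 1 mg/mL protein, was exposed to 10 μM compound for 30 min. Aliquots were heated for 3 min across 48°C-58°C, pooled, brought to 0.5% NP-40 at 4°C and spun at 21,000xg for 90 min, with the supernatant taken as soluble protein. TMTpro 16plex LC-MS/MS with equalised channel sums quantified that protein. Values are log-two fold changes in thermal stability relative to solvent controls, taken from duplicates.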

Amino acid sequences for entries named in this document (tags omitted). A change or cut given only in a name is not applied to a line headed by its entry.
UniProt P30305: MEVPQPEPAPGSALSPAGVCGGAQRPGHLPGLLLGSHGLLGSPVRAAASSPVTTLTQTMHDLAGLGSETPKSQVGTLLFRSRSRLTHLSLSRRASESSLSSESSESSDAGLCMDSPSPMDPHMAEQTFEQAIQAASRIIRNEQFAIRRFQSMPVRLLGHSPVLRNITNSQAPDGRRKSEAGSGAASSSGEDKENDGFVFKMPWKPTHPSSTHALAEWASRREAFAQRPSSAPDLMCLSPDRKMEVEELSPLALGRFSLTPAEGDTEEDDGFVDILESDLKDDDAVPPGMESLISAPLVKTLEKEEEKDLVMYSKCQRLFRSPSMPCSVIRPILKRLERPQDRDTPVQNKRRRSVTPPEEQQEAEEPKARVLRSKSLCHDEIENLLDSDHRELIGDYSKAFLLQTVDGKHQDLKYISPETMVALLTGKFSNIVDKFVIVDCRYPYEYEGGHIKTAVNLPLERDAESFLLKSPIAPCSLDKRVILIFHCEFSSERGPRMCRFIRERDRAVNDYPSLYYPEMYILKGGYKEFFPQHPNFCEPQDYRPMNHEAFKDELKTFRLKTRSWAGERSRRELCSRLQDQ
UniProt Q13042, whole entry, looked up: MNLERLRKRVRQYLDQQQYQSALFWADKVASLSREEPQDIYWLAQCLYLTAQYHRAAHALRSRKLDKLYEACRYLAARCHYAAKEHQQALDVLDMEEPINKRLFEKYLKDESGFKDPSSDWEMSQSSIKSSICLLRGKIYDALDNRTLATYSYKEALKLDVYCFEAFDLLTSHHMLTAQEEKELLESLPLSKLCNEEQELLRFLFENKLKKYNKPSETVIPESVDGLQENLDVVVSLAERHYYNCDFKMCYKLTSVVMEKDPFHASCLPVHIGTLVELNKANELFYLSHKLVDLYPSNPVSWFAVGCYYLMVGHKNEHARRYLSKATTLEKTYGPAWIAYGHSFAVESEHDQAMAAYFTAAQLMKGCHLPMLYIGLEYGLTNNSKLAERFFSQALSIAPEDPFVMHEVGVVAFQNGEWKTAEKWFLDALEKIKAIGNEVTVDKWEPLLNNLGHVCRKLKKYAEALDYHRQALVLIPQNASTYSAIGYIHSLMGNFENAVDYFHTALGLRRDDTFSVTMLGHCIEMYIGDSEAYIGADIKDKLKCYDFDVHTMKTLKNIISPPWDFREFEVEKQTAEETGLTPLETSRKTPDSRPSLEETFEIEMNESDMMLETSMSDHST
UniProt O14735: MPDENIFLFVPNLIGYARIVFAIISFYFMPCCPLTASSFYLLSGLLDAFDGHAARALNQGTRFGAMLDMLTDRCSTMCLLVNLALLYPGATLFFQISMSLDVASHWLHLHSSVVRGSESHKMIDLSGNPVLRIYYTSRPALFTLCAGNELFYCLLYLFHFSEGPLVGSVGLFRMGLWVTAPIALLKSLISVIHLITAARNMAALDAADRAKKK
UniProt Q5VV42: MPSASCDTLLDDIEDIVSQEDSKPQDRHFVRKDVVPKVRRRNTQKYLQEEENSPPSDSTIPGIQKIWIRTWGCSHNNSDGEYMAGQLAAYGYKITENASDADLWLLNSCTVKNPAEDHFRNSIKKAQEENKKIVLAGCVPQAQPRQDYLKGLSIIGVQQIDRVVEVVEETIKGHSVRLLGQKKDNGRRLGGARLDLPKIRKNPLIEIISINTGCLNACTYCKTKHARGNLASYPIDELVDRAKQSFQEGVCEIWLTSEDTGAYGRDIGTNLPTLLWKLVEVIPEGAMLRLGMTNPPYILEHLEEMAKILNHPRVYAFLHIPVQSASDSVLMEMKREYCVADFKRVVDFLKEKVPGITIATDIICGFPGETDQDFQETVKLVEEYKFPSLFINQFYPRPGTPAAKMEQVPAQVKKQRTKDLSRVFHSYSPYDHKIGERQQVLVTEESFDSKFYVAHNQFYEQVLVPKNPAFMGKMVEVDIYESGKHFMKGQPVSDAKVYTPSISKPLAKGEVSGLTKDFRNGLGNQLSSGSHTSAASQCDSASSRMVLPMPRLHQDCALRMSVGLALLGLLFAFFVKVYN
UniProt P48960: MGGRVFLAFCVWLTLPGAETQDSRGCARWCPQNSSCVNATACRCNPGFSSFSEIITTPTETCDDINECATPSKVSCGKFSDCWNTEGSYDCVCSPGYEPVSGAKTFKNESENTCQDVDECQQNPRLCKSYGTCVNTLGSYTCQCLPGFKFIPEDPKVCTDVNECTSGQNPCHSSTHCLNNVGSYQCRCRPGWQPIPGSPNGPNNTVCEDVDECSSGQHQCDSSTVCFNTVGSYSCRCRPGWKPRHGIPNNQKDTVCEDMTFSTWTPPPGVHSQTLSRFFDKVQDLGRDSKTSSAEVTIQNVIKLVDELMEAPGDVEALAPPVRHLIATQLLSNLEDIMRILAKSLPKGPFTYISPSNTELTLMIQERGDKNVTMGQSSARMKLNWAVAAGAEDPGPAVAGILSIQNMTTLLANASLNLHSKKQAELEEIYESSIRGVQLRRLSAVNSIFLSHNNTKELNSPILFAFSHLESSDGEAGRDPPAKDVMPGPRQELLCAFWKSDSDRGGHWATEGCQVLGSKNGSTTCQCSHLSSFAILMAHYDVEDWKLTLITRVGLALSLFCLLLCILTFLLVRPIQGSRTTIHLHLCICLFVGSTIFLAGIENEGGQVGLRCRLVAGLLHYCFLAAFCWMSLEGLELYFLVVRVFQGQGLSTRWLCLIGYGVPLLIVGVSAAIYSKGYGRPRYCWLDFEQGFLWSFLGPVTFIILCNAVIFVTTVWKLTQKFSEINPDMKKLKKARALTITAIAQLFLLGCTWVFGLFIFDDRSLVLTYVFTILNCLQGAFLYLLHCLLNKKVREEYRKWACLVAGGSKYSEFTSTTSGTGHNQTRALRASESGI
UniProt Q711Q0: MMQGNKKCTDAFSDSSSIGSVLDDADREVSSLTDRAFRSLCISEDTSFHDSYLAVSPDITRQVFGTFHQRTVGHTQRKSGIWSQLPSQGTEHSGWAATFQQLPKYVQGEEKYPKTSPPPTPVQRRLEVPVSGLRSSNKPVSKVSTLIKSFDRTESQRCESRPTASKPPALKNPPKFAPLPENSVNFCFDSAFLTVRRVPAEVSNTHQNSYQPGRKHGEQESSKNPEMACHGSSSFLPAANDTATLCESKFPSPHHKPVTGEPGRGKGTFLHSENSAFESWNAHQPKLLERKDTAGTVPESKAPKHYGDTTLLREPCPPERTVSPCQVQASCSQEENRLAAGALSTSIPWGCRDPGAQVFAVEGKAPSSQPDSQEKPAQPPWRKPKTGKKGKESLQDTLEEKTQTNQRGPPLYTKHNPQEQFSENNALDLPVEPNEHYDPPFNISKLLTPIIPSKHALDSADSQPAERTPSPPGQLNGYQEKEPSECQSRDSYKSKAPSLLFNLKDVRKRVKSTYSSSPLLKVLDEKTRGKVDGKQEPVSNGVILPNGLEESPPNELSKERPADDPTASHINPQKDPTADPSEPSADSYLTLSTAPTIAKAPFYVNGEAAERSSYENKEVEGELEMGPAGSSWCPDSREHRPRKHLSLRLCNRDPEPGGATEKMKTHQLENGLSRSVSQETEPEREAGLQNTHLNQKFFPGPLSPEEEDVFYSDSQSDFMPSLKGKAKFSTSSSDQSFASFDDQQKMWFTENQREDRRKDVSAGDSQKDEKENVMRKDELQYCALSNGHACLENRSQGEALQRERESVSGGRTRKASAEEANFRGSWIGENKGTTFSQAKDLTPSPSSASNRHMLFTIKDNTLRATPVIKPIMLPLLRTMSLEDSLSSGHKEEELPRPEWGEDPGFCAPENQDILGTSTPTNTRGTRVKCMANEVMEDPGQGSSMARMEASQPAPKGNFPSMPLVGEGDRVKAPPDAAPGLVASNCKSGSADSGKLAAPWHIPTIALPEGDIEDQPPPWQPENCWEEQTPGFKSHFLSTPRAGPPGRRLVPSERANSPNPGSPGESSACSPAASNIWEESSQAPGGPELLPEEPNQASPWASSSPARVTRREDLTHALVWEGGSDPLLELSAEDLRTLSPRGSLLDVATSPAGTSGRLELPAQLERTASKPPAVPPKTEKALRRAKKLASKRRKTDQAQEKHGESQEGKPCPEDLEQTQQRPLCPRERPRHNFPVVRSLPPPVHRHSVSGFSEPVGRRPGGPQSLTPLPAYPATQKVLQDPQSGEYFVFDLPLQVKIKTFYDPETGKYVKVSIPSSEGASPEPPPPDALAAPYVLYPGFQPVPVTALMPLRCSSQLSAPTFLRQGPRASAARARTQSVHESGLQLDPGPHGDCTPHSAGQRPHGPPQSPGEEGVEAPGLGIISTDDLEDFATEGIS
UniProt Q9UHN6: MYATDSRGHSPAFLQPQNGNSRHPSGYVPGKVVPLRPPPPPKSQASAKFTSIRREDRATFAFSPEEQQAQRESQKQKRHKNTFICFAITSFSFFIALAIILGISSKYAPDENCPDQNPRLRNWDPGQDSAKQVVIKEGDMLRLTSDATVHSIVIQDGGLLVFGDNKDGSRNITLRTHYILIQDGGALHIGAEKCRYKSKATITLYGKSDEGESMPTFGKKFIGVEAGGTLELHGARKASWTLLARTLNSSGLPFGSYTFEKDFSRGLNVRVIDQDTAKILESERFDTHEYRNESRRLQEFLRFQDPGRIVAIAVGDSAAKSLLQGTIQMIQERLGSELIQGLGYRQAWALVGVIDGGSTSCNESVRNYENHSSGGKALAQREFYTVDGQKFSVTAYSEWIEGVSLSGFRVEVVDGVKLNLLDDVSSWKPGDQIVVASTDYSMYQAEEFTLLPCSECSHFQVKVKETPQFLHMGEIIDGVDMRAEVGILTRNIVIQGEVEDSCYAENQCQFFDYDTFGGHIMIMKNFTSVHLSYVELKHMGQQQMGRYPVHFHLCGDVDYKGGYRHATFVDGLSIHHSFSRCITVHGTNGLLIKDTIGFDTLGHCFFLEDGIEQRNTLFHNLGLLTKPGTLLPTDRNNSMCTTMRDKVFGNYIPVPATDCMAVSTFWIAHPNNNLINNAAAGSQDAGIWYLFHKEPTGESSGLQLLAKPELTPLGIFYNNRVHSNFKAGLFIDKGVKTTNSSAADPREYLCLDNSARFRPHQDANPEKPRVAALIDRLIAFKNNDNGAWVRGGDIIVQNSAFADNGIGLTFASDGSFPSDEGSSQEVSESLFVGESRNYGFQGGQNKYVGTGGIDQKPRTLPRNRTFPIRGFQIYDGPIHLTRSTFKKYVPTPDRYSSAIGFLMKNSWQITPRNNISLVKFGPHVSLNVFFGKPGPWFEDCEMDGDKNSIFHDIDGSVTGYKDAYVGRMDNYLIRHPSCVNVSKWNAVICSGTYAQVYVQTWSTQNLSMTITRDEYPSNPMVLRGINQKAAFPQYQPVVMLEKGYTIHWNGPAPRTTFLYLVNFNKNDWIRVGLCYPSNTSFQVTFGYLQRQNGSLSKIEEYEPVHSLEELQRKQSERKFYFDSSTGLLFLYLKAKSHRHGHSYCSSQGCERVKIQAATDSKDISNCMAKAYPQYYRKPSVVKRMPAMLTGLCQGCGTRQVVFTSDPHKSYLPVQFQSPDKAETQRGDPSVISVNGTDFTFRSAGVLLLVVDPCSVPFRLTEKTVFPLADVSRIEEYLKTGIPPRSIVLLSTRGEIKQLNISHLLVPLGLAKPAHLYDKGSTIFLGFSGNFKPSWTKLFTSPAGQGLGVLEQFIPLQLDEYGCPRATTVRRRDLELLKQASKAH
UniProt Q8WUX2: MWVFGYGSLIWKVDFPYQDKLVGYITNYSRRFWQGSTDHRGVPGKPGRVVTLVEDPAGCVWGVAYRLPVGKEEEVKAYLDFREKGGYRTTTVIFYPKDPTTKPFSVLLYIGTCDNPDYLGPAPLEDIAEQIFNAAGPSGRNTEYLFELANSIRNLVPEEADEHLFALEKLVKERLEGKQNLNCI
UniProt P23528, whole entry, looked up: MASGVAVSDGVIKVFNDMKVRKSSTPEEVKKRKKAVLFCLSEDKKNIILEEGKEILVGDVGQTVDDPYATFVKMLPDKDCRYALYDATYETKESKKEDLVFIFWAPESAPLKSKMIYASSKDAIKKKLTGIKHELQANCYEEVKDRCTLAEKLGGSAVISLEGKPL
UniProt Q9C0F1: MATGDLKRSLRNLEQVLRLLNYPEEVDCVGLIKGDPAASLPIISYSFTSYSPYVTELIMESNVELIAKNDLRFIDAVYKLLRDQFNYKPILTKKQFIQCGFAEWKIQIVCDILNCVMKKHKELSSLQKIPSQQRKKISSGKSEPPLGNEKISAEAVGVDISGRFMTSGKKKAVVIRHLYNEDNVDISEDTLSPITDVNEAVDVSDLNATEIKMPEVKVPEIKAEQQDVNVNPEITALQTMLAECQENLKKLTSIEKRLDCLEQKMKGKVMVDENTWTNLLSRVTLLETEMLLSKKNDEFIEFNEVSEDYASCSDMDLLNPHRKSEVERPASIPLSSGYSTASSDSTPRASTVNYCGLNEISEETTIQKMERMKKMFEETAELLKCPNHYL

[2] = compound: CCCS(=O)(=O)Nc1ccc(F)c(C(=O)c2c[nH]c3ncc(Cl)cc23)c1F
Method in brief: as §1

[3] = compound: CCN(CCCOc1ccc2c(Nc3cc(CC(=O)Nc4cccc(F)c4)[nH]n3)ncnc2c1)CCOP(=O)(O)O [barasertib]
Method in brief: as §1

[4] = compound: CC[C@@H]1C(=O)N(C)c2cnc(Nc3ccc(C(=O)NC4CCN(C)CC4)cc3OC)nc2N1C1CCCC1
Method in brief: as §1

[5] = compound: CC[C@@H]1C(=O)N(C)c2cnc(Nc3ccc(C(=O)N[C@H]4CC[C@H](N5CCN(CC6CC6)CC5)CC4)cc3OC)nc2N1C(C)C [volasertib]
Method in brief: as §1

[6] = compound: CCn1c(C(=O)N(C2CC2)C2CC2)cc2c3c(ncn3C)c(Nc3cc(C)n(C)n3)nc21
Method in brief: as §1

[7] = compound: CCn1cc(-c2ccnc3[nH]c(-c4cccc(CN(C)C)c4)cc23)c(-c2ccc(NC(=O)N(C)C)cc2)n1
Method in brief: as §1

[8] = compound: CN1CCC(CNc2ccc3ncc(-c4cccc(OC(F)(F)F)c4)n3n2)CC1
Method in brief: as §1

[9] = compound: CN1CCN(CCOc2cc(OC3CCOCC3)c3c(Nc4c(Cl)ccc5c4OCO5)ncnc3c2)CC1 [saracatinib]
Method in brief: as §1

[10] = compound: CN1CCN(c2nc(C3=C(c4c[nH]c5ccccc45)C(=O)NC3=O)c3ccccc3n2)CC1 [sotrastaurin]
Method in brief: as §1

[11] = compound: CN1CC[C@H](c2c(O)cc(O)c3c(=O)cc(-c4ccccc4Cl)oc23)[C@H](O)C1 [alvocidib]
Method in brief: as §1

[12] = compound: CN1CCc2c(c3ccccc3n2Cc2ccc(C(=O)NO)cc2)C1 [Tubastatin A]
Method in brief: as §1

[13] = compound: CNC(=O)C1=CC=CC=C1NC2=NC(=NC=C2Cl)NC3=C(C=C(C=C3)N4CCOCC4)OC
Method in brief: as §1

[14] = compound: CNC(=O)c1ccc(Nc2ncc(C(F)(F)F)c(NCc3nccnc3N(C)S(C)(=O)=O)n2)cc1 [defactinib]
Method in brief: as §1

[15] = compound: CNc1nc(-c2ccc3c(N)n[nH]c3c2)cc(N2C[C@@H](C(=O)NC3CCCCC3)CC[C@H]2C)n1
Method in brief: as §1

[16] = compound: COC(=O)N[C@@H](C)CNc1nccc(-c2cn(C(C)C)nc2-c2cc(Cl)cc(NS(C)(=O)=O)c2F)n1 [encorafenib]
Method in brief: as §1

[17] = compound: COC(=O)[C@H](CCSC)NC(=O)C1=C(C=C(C=C1)NC[C@H](CS)N)C2=CC=CC=C2
Method in brief: as §1

[18] = compound: COc1cc(Nc2ncc3c(n2)-c2ccc(Cl)cc2C(c2c(F)cccc2OC)=NC3)ccc1C(=O)O [alisertib]
Method in brief: as §1

[19] = compound: COc1cc2nc(-c3cc(F)ccc3O)nc(N[C@@H]3CNC[C@H]3C(C)(C)O)c2cc1OC
Method in brief: as §1

[20] = compound: COc1cc2ncnc(Nc3ccc(F)c(Cl)c3)c2cc1OCCCN1CCOCC1 [gefitinib]
Method in brief: as §1

Row | Target | log2 fold change [1] | log2 fold change [2] | log2 fold change [3] | log2 fold change [4] | log2 fold change [5] | log2 fold change [6] | log2 fold change [7] | log2 fold change [8] | log2 fold change [9] | log2 fold change [10] | log2 fold change [11] | log2 fold change [12] | log2 fold change [13] | log2 fold change [14] | log2 fold change [15] | log2 fold change [16] | log2 fold change [17] | log2 fold change [18] | log2 fold change [19] | log2 fold change [20]
1 | CDC25B (UniProt P30305) | inactive: 0.058 | inactive: -0.193 | inactive: -0.014 | inactive: 0 | inactive: 0.095 | inactive: 0.015 | inactive: 0.036 | inactive: 0.042 | inactive: -0.067 | inactive: 0.007 | inactive: 0.049 | inactive: -0.083 | inactive: 0.01 | inactive: -0.117 | inactive: 0.019 | inactive: 0.028 | inactive: 0.052 | inactive: 0.046 | inactive: -0.036 | inactive: -0.043
2 | CDC23 (UniProt Q9UJX2) | inactive: 0 | inactive: -0.001 | inactive: 0.003 | inactive: -0.022 | inactive: -0.044 | inactive: 0.026 | inactive: 0.022 | inactive: -0.018 | inactive: 0.016 | inactive: -0.005 | inactive: 0.042 | inactive: -0.063 | inactive: 0.003 | inactive: 0.002 | inactive: -0.014 | inactive: 0.013 | inactive: -0.055 | inactive: 0.002 | inactive: -0.005 | inactive: 0.01
3 | CENPE (UniProt Q02224) | inactive: 0.004 | inactive: -0.015 | inactive: 0.041 | inactive: 0.091 | inactive: -0.075 | inactive: -0.002 | inactive: -0.085 | inactive: 0.068 | inactive: 0.026 | inactive: 0.034 | inactive: -0.084 | inactive: -0.102 | inactive: 0.017 | inactive: -0.002 | inactive: -0.006 | inactive: -0.009 | inactive: 0.01 | inactive: 0.018 | inactive: -0.012 | inactive: 0.025
4 | CDC16 (UniProt Q13042) | inactive: -0.042 | inactive: 0.001 | inactive: -0.018 | inactive: -0.074 | inactive: -0.063 | inactive: 0.043 | inactive: 0.046 | inactive: -0.041 | inactive: -0.005 | inactive: 0.02 | inactive: 0.012 | inactive: -0.1 | inactive: 0.002 | inactive: -0.024 | inactive: -0.097 | inactive: 0.032 | inactive: -0.133 | inactive: -0.008 | inactive: -0.037 | inactive: 0.017
5 | CDIPT (UniProt O14735) | inactive: 0.044 | inactive: -0.018 | inactive: 0.041 | inactive: -0.016 | inactive: -0.023 | inactive: 0.028 | inactive: 0.045 | inactive: -0.063 | inactive: 0.036 | inactive: 0.018 | inactive: -0.058 | inactive: -0.039 | inactive: -0.005 | inactive: 0.02 | inactive: -0.064 | inactive: 0.043 | inactive: -0.045 | inactive: 0.059 | inactive: -0.151 | inactive: 0.069
6 | CDKAL1 (UniProt Q5VV42) | inactive: -0.009 | inactive: 0.058 | inactive: 0 | inactive: 0.024 | inactive: -0.033 | inactive: -0.011 | inactive: -0.025 | inactive: -0.031 | inactive: 0.018 | inactive: 0.033 | inactive: 0.015 | inactive: 0.008 | inactive: -0.004 | inactive: 0.02 | inactive: -0.005 | inactive: 0.052 | inactive: 0.038 | inactive: 0.004 | inactive: 0.097 | inactive: -0.007
7 | CD97 (UniProt P48960) | inactive: 0.056 | inactive: 0.016 | inactive: -0.012 | inactive: 0.065 | inactive: 0.048 | inactive: -0.067 | inactive: -0.026 | inactive: 0.048 | inactive: -0.04 | inactive: 0.053 | inactive: -0.002 | inactive: 0.062 | inactive: -0.104 | inactive: 0.041 | inactive: 0.046 | inactive: -0.058 | inactive: 0.004 | inactive: 0.038 | inactive: 0.01 | inactive: 0.017
8 | CEFIP (UniProt Q711Q0) | inactive: 0.06 | inactive: 0.036 | inactive: -0.01 | inactive: 0.142 | inactive: -0.017 | inactive: -0.055 | inactive: -0.051 | inactive: -0.002 | – | inactive: 0.051 | inactive: -0.033 | inactive: 0.08 | inactive: -0.01 | inactive: 0.128 | – | inactive: 0.156 | inactive: -0.097 | inactive: -0.002 | inactive: 0.007 | inactive: -0.074
9 | CDC34 (UniProt P49427) | inactive: 0.083 | inactive: 0.017 | inactive: 0.006 | inactive: -0.004 | inactive: -0.028 | inactive: 0.107 | inactive: -0.057 | inactive: -0.031 | inactive: 0.058 | inactive: 0.005 | inactive: 0.057 | inactive: -0.216 | inactive: -0.017 | inactive: -0.007 | inactive: -0.041 | inactive: -0.025 | inactive: -0.052 | inactive: 0.021 | inactive: -0.016 | inactive: 0.057
10 | CEMIP2 (UniProt Q9UHN6) | inactive: -0.044 | inactive: 0.062 | inactive: 0.063 | inactive: 0.117 | inactive: 0.003 | inactive: 0.025 | inactive: 0 | inactive: 0.039 | inactive: 0.042 | inactive: -0.004 | inactive: -0.072 | inactive: 0.045 | inactive: 0.066 | inactive: 0.086 | inactive: 0.033 | inactive: -0.03 | inactive: -0.091 | – | inactive: 0.039 | –
11 | CHAC2 (UniProt Q8WUX2) | inactive: -0.028 | inactive: -0.004 | inactive: -0.006 | inactive: -0.044 | inactive: 0.006 | inactive: 0.02 | active: 0.649 | inactive: -0.154 | inactive: -0.018 | inactive: -0.031 | inactive: 0.223 | inactive: 0.019 | inactive: 0.092 | inactive: 0.028 | inactive: 0.019 | inactive: 0.06 | inactive: 0.003 | inactive: -0.039 | inactive: -0.007 | inactive: 0
12 | CDC42BPB (UniProt Q9Y5S2) | inactive: 0.074 | inactive: 0.038 | inactive: 0.022 | inactive: -0.079 | inactive: -0.011 | inactive: -0.011 | inactive: 0.242 | inactive: -0.233 | inactive: -0.003 | inactive: -0.029 | inactive: -0.098 | inactive: 0.039 | inactive: -0.167 | inactive: -0.072 | inactive: 0.181 | inactive: 0.118 | inactive: -0.168 | inactive: -0.014 | inactive: 0.128 | inactive: 0.055
13 | CFL1 (UniProt P23528) | inactive: -0.024 | inactive: 0.001 | inactive: -0.01 | inactive: -0.024 | inactive: 0.032 | inactive: -0.004 | inactive: 0.108 | inactive: -0.02 | inactive: -0.017 | inactive: -0.017 | inactive: 0.005 | inactive: 0.032 | inactive: -0.011 | inactive: 0.029 | inactive: -0.018 | inactive: -0.042 | inactive: -0.044 | inactive: -0.01 | inactive: 0 | inactive: 0.003
14 | CEP44 (UniProt Q9C0F1) | inactive: -0.035 | inactive: 0.061 | inactive: -0.004 | inactive: 0.004 | inactive: -0.021 | inactive: 0.009 | inactive: 0.043 | inactive: -0.013 | inactive: -0.002 | inactive: -0.018 | inactive: 0.045 | inactive: -0.057 | inactive: 0.019 | inactive: 0.081 | inactive: -0.03 | inactive: 0.007 | inactive: -0.059 | inactive: -0.02 | inactive: 0.033 | inactive: 0.03
15 | CDK19 (UniProt Q9BWU1) | inactive: 0.275 | inactive: 0.47 | inactive: 0.085 | inactive: -0.144 | inactive: 0.165 | inactive: 0.02 | inactive: 0.032 | inactive: 0.095 | inactive: 0.059 | inactive: 0.021 | inactive: 0.043 | inactive: 0.036 | inactive: -0.101 | inactive: 0 | inactive: -0.046 | inactive: -0.042 | inactive: -0.043 | inactive: -0.157 | inactive: 0.042 | inactive: 0.147

Reformatted with tabs: part of the list above.
Row	Target	log2 fold change [1]	log2 fold change [2]	log2 fold change [3]	log2 fold change [4]	log2 fold change [5]	log2 fold change [6]	log2 fold change [7]	log2 fold change [8]	log2 fold change [9]	log2 fold change [10]	log2 fold change [11]	log2 fold change [12]	log2 fold change [13]	log2 fold change [14]	log2 fold change [15]	log2 fold change [16]	log2 fold change [17]	log2 fold change [18]	log2 fold change [19]	log2 fold change [20]
7	CD97 (UniProt P48960)	inactive: 0.056	inactive: 0.016	inactive: -0.012	inactive: 0.065	inactive: 0.048	inactive: -0.067	inactive: -0.026	inactive: 0.048	inactive: -0.04	inactive: 0.053	inactive: -0.002	inactive: 0.062	inactive: -0.104	inactive: 0.041	inactive: 0.046	inactive: -0.058	inactive: 0.004	inactive: 0.038	inactive: 0.01	inactive: 0.017
8	CEFIP (UniProt Q711Q0)	inactive: 0.06	inactive: 0.036	inactive: -0.01	inactive: 0.142	inactive: -0.017	inactive: -0.055	inactive: -0.051	inactive: -0.002	–	inactive: 0.051	inactive: -0.033	inactive: 0.08	inactive: -0.01	inactive: 0.128	–	inactive: 0.156	inactive: -0.097	inactive: -0.002	inactive: 0.007	inactive: -0.074
9	CDC34 (UniProt P49427)	inactive: 0.083	inactive: 0.017	inactive: 0.006	inactive: -0.004	inactive: -0.028	inactive: 0.107	inactive: -0.057	inactive: -0.031	inactive: 0.058	inactive: 0.005	inactive: 0.057	inactive: -0.216	inactive: -0.017	inactive: -0.007	inactive: -0.041	inactive: -0.025	inactive: -0.052	inactive: 0.021	inactive: -0.016	inactive: 0.057

Source: the supplement of paper PMC10849652
